From patent US20240383959A1, “CELL-FREE METHODS AND COMPOSITIONS COMPRISING TAGLESS THERAPEUTIC HORMONES” (Northwestern University, priority 2021, published 2024)
These are yes or no findings as the source states them, for the method shown. Some results given as binding are weak or reduced against the parent protein; the word gives no strength. Tags and fused reporters may be left off the sequences shown.

By UniProt entry, the sequences of proteins in these tests, tags left out. Where a name states a change or a piece, a line headed by the entry shows the natural chain unless it says otherwise. Residues count along the entry.
UniProt P43220, residues 24-145: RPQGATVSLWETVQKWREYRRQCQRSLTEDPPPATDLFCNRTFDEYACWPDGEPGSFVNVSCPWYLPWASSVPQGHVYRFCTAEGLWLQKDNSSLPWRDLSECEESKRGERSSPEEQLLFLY
UniProt Q03431, residues 27-186: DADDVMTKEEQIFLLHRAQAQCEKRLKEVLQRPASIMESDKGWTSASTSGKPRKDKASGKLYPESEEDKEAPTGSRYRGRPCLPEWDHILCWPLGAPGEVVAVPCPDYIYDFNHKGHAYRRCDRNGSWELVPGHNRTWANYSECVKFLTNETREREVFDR

Assays:
[1] = target: Fc-tagged extracellular domain of the GLP-1 receptor (Sino Biological, 13944-H02H) (UniProt P43220); assay: AlphaLISA cross titration (FIG. 9e)
[2] = target: Fc-tagged extracellular domain of the GLP-1 receptor (Sino Biological, 13944-H02H) (UniProt P43220); assay: AlphaLISA, sFLAG-tagged GLP-1 on anti-FLAG donor beads, Fc-tagged receptor ECD on Protein A acceptor beads
[3] = target: His-tagged PTH receptor (Abcam ab182670), extracellular domain (UniProt Q03431); assay: AlphaLISA cross titration (FIG. 10b)
[4] = target: His-tagged PTH receptor (Abcam ab182670), extracellular domain (UniProt Q03431); assay: AlphaLISA, sFLAG-tagged PTH on anti-FLAG donor beads, His-tagged receptor on nickel chelate acceptor beads

B1: sFLAG tagged GLP-1 produced in CFPS (peptide)
peptide: HAEGTFTSDVSSYLEGQAAKEFIAWLVKGRGGGGSGGGDYKDEDLL
- binding [1]: binds
- binding [2]: binds

B2: sFLAG-tagged PTH produced in CFPS (ligand)
chain: SVSEIQLMHNLGKHLNSMERVEWLRKKLQDVHNFVALGAPLAPRDAGSQRPRKKEDNVLVESHEKSLGEADKADVNVLTKAKSQGGGSGGGDYKDEDLL
- binding [3]: binds
- binding [4]: binds
